The target of assay [1] is T1, FLAG-BNIP-2 (human) (UniProt Q12982).
T1 sequence: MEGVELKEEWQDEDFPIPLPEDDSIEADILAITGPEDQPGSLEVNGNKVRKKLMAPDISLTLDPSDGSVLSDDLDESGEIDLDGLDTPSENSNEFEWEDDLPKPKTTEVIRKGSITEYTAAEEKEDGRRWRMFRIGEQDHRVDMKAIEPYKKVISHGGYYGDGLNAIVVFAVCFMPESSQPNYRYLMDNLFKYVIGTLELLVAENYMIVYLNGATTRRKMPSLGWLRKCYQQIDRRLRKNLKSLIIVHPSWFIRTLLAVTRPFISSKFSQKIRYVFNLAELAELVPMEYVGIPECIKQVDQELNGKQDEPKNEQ
As to the kind of experiment: co-IP.

Chains of the proteins cited; added tags and fusions are not shown.
UniProt P49024: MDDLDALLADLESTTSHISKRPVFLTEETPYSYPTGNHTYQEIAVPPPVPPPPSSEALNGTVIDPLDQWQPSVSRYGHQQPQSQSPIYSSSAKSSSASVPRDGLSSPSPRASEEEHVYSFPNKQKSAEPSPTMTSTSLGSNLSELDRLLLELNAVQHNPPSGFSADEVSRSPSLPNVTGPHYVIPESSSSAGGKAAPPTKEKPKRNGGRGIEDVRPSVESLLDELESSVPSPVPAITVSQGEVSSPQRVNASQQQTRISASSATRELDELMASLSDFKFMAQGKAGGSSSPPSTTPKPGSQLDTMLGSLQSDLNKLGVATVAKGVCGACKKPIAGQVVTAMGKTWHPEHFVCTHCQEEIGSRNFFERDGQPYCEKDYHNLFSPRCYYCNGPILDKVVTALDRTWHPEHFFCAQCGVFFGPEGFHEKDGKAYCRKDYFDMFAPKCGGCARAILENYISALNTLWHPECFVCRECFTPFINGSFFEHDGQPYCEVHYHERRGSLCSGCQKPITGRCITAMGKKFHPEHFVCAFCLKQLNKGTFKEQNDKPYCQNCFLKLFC

The target of assay [2] is GFP-paxillin (UniProt P49024). As to the kind of experiment: co-IP.
Assay [3] addresses BNIP-2 (endogenous, H9c2) (rat (endogenous in H9c2)). The experiment in a line: proximity ligation.

These are yes or no findings as the source states them, for the method shown. In cells and extracts the contact can be indirect. Binding can be weak; no strength is given. For part of these data: Tags and fused reporters may be left off the sequences shown.

Regarding GFP-vinculin (from UniProt P18206-2), the binding entry in assay [1] was “binds”. For the molecule “mCherry-vinculin (from UniProt P18206-2)”, the binding result in assay [2] is recorded as “binds”.

B1: vinculin (endogenous, H9c2) (protein, UniProt P85972 1-1066)
chain: MPVFHTRTIESILEPVAQQISHLVIMHEEGEVDGKAIPDLTAPVAAVQAAVSNLVRVGKETVQTTEDQILKRDMPPAFIKVENACTKLVQAAQMLQSDPYSVPARDYLIDGSRGILSGTSDLLLTFDEAEVRKIIRVCKGILEYLTVAEVVETMEDLVTYTKNLGPGMTKMAKMIDERQQELTHQEHRVMLVNSMNTVKELLPVLISAMKIFVTTKNSKNQGIEEALKNRNFTVGKMSAEINEIIRVLQLTSWDEDAWASKDTEAMKRALASIDSKLNQAKGWLRDPNASPGDAGEQAIRQILDEAGKVGELCAGKERREILGTCKMLGQMTDQVADLRARGQGASPVAMQKAQQVSQGLDVLTAKVENAARKLEAMTNSKQSIAKKIDAAQNWLADPNGGPEGEEQIRGALAEARKIAELCDDPKERDDILRSLGEIAALTSKLGDLRRQGKGDSPEARALAKQVATALQNLQTKTNRAVANSRPAKAAVHLEGKIEQAQRWIDNPTVDDRGVGQAAIRGLVAEGHRLANVMMGPYRQDLLAKCDRVDQLAAQLADLAARGEGESPQARALASQLQDSLKDLKTQMQEAMTQEVSDVFSDTTTPIKLLAVAATAPPDAPNREEVFDERAANFENHSGRLGATAEKAAAVGAANKSTVEGIQASVKTARELTPQVISAARILLRNPGNQAAYEHFETMKNQWIDNVEKMTGLVDEAIDTKSLLDASEEAIKKDLDKCKVAMANIQPQMLVAGATSIARRANRILLVAKREVENSEDPKFREAVKAASDELSKTISPMVMDAKAVAGNISDPGLQKSFLDSGYRILGAVAKVREAFQPQEPDFPPPPPDLEQLRLTDELAPPKPPLPEGEVPPPRPPPPEEKDEEFPEQKAGEVINQPMMMAARQLHDEARKWSSKGNDIIAAAKRMALLMAEMSRLVRGGSGTKRALIQCAKDIAKASDEVTRLAKEVAKQCTDKRIRTNLLQVCERIPTISTQLKILSTVKATMLGRTNISDEESEQATEMLVHNAQNLMQSVKETVREAEAASIKIRTDAGFTLRWVRKTPWYQ
On to B1, for which, in assay [3], the binding result is listed as “binds”.
